This test concerns the target deglycosylated human sFlt-1 (human). Briefly: size exclusion chromatography of the mixture. For orientation: SEC sorts molecules by how far they enter the pores of the column.

These are yes or no findings as the source states them, for the method shown. A result given as binding can be weak or reduced; the word gives no strength.

B1: 21B3 (antibody, V domains shown)
VH: ELQLVESGGGLVQPGGSLRLSCAASGFTFRDYSMSWVRQAPGKGLEWVSAISWNGDSTYYAESMKGRFTISRDNAKNTLYLQMNSLKSEDTAVYYCAKSWATPIESLYYYGMDYWGKGTLVTVSS
VL: SYELTQSPSVSVALRQTAKITCGGNNIGSQTAQWYQQKPGQAPVLVIYANNRRPSGIPERFSGSKSGNTATLTISGAQAEDEADYYCQVWDGSTQAIVFGGGTHLTVL
Turning to B1, the binding result was “binds”.

For the origin of these results see patent publication US20240076387A1.
